# According to doi:10.1101/2025.07.06.663356:
# The chains behind the UniProt entries cited, without tags or fusion partners. Where a name states a change or a piece, a line headed by the entry shows the natural chain unless it says otherwise.
# UniProt O14744: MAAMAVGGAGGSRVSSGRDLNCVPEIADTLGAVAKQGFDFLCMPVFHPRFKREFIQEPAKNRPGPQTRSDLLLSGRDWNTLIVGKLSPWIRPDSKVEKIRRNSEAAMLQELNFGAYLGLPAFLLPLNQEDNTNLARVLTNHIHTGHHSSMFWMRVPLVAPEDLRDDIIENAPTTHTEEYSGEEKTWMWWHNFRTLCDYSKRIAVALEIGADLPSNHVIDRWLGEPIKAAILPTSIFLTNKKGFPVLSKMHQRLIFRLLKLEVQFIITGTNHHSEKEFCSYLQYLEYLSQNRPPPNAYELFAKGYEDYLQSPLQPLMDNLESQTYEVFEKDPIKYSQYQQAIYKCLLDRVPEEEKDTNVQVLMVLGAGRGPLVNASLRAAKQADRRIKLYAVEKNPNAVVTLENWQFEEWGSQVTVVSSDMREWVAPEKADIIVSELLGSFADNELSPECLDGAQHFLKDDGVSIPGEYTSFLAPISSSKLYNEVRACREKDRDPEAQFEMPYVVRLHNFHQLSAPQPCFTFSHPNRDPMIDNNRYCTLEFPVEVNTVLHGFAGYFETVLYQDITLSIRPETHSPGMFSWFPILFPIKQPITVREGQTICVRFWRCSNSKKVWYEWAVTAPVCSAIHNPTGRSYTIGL
# UniProt Q99873: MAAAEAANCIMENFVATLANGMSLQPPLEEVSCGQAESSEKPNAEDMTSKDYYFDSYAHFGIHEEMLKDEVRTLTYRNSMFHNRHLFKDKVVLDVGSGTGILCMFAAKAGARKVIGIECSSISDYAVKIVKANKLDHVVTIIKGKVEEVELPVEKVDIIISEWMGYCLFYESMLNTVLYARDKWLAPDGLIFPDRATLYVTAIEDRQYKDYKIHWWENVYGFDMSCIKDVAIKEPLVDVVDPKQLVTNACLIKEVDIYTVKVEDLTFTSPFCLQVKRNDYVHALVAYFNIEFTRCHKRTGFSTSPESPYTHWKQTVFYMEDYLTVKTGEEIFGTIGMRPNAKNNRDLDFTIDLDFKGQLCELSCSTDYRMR
# UniProt O60678: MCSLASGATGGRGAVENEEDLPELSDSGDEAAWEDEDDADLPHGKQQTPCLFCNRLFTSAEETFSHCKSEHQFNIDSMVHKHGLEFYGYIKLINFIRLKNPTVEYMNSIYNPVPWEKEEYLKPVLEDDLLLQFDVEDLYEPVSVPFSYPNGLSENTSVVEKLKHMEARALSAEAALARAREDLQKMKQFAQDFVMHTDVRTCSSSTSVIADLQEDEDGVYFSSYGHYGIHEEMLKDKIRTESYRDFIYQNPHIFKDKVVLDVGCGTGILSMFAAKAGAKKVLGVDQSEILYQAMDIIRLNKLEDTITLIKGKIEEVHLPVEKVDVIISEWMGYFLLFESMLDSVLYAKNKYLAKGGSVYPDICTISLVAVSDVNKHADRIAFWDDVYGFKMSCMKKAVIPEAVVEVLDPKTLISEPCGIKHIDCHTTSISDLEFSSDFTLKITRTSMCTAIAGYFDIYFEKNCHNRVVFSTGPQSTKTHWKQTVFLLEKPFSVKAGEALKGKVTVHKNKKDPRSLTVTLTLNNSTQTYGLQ
# UniProt Q8WUM4: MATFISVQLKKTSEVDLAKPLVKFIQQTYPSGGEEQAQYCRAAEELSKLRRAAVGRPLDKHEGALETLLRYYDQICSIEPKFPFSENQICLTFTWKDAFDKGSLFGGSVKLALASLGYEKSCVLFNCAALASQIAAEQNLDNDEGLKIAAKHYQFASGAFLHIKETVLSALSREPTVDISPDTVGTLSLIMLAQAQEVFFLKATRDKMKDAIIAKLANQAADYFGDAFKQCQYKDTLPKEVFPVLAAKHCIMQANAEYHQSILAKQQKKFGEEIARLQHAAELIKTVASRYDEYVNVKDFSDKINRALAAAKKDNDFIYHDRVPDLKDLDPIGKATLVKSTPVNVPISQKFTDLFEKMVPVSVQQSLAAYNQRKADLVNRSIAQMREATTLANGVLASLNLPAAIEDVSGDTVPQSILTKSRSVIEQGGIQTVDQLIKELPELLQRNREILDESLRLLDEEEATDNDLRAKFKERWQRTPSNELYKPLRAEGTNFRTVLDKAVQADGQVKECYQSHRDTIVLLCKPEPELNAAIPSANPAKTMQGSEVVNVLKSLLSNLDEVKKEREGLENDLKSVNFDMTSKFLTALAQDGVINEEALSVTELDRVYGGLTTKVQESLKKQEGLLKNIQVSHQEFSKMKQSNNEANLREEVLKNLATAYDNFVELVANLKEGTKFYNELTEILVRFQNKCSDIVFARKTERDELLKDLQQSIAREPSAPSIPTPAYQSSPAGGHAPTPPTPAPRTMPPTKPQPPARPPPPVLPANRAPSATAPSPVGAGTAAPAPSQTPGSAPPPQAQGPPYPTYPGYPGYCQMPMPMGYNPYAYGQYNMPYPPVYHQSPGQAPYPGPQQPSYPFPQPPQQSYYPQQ
# No constants are given. Whether binding was seen depends on the method and setting. Binding seen in cells or lysates may run through a third protein. Some binding calls cover weakened binding; strength is not graded here. For part of these data: Sequences can lack the tags named with a protein.
# T1: Flag-PRMT2 (human) (UniProt P55345)
# T1 sequence: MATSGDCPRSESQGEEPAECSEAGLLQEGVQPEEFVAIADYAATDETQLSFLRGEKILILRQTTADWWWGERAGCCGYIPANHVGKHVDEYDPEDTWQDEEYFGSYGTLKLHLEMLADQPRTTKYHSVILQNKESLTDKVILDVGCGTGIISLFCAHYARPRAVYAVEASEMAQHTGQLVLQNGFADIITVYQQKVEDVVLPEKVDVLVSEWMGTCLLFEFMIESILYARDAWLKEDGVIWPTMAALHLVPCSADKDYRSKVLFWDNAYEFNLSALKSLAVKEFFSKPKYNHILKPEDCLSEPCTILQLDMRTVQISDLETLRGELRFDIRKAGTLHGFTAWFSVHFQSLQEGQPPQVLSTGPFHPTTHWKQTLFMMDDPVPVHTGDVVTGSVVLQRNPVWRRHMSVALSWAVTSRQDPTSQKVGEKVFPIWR
# Columns and labels:
# Assay in all cases: co-IP
# Flag-PRMT5 (human) = Flag-PRMT5 (human) (UniProt O14744)
# Flag-PRMT1 (human) = Flag-PRMT1 (human) (UniProt Q99873)
# Flag-PRMT2 (human) = molecular target: T1, Flag-PRMT2 (human)
# Flag-PRMT3 (human) = Flag-PRMT3 (human) (UniProt O60678)
# GFP-ALIX-FL (human) = GFP-ALIX-FL (human) (UniProt Q8WUM4)
# [1] = molecular target: GFP-ALIX-3K (R745K, R757K, R767K) (human) (UniProt Q8WUM4)
binding (Flag-PRMT5 (human)),binding (Flag-PRMT1 (human)),binding (Flag-PRMT2 (human)),binding (Flag-PRMT3 (human)),binding (GFP-ALIX-FL (human)),binding [1],Molecule
no binding,no binding,no binding,no binding,–,–,GFP-ALIX-FL (from UniProt Q8WUM4 1-868)
–,–,–,–,binds,binds,"CEP55, endogenous (protein, UniProt Q53EZ4 1-464) MSSRSTKDLIKSKWGSKPSNSKSETTLEKLKGEIAHLKTSVDEITSGKGKLTDKERHRLLEKIRVLEAEKEKNAYQLTEKDKEIQRLRDQLKARYSTTTLLEQLEETTREGERREQVLKALSEEKDVLKQQLSAATSRIAELESKTNTLRLSQTVAPNCFNSSINNIHEMEIQLKDALEKNQQWLVYDQQREVYVKGLLAKIFELEKKTETAAHSLPQQTKKPESEGYLQEEKQKCYNDLLASAKKDLEVERQTITQLSFELSEFRRKYEETQKEVHNLNQLLYSQRRADVQHLEDDRHKTEKIQKLREENDIARGKLEEEKKRSEELLSQVQFLYTSLLKQQEEQTRVALLEQQMQACTLDFENEKLDRQHVQHQLHVILKELRKARNQITQLESLKQLHEFAITEPLVTFQGETENREKVAASPKSPTAALNESLVECPKCNIQYPATEHRDLLVHVEYCSK"
